Two sequences from paper PMC7617797 can be followed below.

Sequences of proteins named here, by UniProt entry; tags and fusion partners are left off. A change or cut given only in a name is not applied to a line headed by its entry.
UniProt Q9BQ15: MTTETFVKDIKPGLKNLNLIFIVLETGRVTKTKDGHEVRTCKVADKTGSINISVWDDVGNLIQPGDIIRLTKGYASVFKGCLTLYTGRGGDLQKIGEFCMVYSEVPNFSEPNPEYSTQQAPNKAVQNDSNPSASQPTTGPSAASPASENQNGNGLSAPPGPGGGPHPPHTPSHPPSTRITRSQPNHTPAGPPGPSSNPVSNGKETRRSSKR

The exact form of at least one protein or probe is not confirmed. A weaker result is weaker than the reference pair of the same experiment. For some assays here: At least one verdict was read from the data and is not stated in words by the source.

In one data set the target is hSSB1 (Homo sapiens) (UniProt Q9BQ15). In words: competition EMSA. The following applies: substrate pre-coated with RPA (10 or 30 nM); EMSA: 25 mM Tris-HCl pH 7.5, 1 mM DTT, 5 mM MgCl2, 100 mM NaCl, 20 min at 37 C; 10 nM substrate; protein 22-167 nM (RPA 5-40 nM); 7.5% native PAGE, 0.5x TBE, 4 C; recombinant protein; protein details: His6 (2BT); label: 5' Cy3; single-stranded DNA. (Mobility shift assays separate free from complexed probe on a gel.)

The next data set relates to RPA. As to the kind of experiment: EMSA. The following applies: affinity similar to all substrates except bubble; EMSA: 25 mM Tris-HCl pH 7.5, 1 mM DTT, 5 mM MgCl2, 100 mM NaCl, 20 min at 37 C; 10 nM substrate; protein 22-167 nM (RPA 5-40 nM); 7.5% native PAGE, 0.5x TBE, 4 C; recombinant protein; label: 5' Cy3 on strand 1.

Regarding “GACGCTGCCGAATTCTACCAGTGCCTTGCTAGGACATCTTTGCCCACCTGCAGGTTCACCC [61-mer ssDNA]”, the binding result with hSSB1 (Homo sapiens) is “binds more weakly”.

As to “GACGCTGCCGAATTCTACCAGTGCCTTGCTAGGACATCTTTGCCCACCTGCAGGTTCACCC / GGGTGAACCTGCAGGTGGGCGGCTGCTCATCGTAGGTTAGTTGGTAGAATTCGGCAGCGTC [bubble DNA]”, the binding result with RPA is “binds more weakly”.
